Experimental data reported in paper PMC7561103.
The exact form of at least one protein or probe is not confirmed. For some assays here: Weaker means in comparison with the reference protein, sequence or condition of that experiment. For some assays here: The direction of at least one scale is not stated here.

Sequences of proteins named here, by UniProt entry; tags and fusion partners are left off. Residues count along the entry.
UniProt P31266, 53-474: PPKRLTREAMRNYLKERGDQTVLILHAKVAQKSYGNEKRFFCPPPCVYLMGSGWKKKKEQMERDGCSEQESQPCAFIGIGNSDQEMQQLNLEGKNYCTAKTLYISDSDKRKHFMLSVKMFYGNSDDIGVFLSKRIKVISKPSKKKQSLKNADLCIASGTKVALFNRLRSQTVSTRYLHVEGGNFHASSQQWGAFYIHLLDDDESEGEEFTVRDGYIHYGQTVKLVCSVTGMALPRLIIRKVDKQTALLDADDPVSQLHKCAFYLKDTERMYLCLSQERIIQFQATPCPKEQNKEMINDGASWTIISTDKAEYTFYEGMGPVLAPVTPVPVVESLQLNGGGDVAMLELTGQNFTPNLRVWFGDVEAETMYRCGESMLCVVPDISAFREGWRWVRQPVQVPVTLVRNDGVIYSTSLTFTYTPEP

Tests used:
Assay in all cases: EMSA
[1] = target: RBPj (CSL) (Mus musculus) (UniProt P31266); settings: RBPj alone, 2.5-640 nM, 1-site state never depleted at high RBPj; EMSA on native polyacrylamide gel; probes 1.75 nM each (mixed), RBPj 2.5-640 nM in 4-fold steps, N1ICD and MAML 2 uM; recombinant protein; residues 53-474
[2] = test system: RBPj (CSL) + N1RAICD (Notch1 RAM-ANK R1974A) + SMT3-MAML1; settings: N1RAICD and MAML 2 uM, RBPj 2.5-640 nM, EMSA on native polyacrylamide gel, probes 1.75 nM each (mixed), RBPj 2.5-640 nM in 4-fold steps, N1ICD and MAML 2 uM, recombinant protein, protein details: SMT3 fusion
[3] = test system: RBPj (CSL) + N1ICD (Notch1 RAM-ANK) + SMT3-MAML1; settings: N1ICD and MAML 2 uM, RBPj 2.5-640 nM, EMSA on native polyacrylamide gel, probes 1.75 nM each (mixed), RBPj 2.5-640 nM in 4-fold steps, recombinant protein, protein details: SMT3 fusion

| Sequence | binding result [1] | binding result ([2]; no cooperative binding) | binding result ([3]; no cooperative binding) | binding result ([2]; binds, but no cooperative binding to second site) | binding signal ([3]; cooperativity factor: second site bound 5-fold stronger than first) [fold] |
| --- | --- | --- | --- | --- | --- |
| CGAACGTGGGAAACCTAGGCTAGAGGCACCGTGGGAAACTAGTGCGGGCGTGGCT (double strand) [2xCSL] | binds | binds | binds | – | – |
| GCTACGTGGGAAAGGAGCAAACTGCGTTTCCCACGTTCGTAGTGCGGGCGTGGCT (double strand) [1xSPS] | – | – | – | binds more weakly | 5 |
